Percent effect of library compounds

The chains behind the UniProt entries cited, without tags or fusion partners.
UniProt I6X8D2, whole entry: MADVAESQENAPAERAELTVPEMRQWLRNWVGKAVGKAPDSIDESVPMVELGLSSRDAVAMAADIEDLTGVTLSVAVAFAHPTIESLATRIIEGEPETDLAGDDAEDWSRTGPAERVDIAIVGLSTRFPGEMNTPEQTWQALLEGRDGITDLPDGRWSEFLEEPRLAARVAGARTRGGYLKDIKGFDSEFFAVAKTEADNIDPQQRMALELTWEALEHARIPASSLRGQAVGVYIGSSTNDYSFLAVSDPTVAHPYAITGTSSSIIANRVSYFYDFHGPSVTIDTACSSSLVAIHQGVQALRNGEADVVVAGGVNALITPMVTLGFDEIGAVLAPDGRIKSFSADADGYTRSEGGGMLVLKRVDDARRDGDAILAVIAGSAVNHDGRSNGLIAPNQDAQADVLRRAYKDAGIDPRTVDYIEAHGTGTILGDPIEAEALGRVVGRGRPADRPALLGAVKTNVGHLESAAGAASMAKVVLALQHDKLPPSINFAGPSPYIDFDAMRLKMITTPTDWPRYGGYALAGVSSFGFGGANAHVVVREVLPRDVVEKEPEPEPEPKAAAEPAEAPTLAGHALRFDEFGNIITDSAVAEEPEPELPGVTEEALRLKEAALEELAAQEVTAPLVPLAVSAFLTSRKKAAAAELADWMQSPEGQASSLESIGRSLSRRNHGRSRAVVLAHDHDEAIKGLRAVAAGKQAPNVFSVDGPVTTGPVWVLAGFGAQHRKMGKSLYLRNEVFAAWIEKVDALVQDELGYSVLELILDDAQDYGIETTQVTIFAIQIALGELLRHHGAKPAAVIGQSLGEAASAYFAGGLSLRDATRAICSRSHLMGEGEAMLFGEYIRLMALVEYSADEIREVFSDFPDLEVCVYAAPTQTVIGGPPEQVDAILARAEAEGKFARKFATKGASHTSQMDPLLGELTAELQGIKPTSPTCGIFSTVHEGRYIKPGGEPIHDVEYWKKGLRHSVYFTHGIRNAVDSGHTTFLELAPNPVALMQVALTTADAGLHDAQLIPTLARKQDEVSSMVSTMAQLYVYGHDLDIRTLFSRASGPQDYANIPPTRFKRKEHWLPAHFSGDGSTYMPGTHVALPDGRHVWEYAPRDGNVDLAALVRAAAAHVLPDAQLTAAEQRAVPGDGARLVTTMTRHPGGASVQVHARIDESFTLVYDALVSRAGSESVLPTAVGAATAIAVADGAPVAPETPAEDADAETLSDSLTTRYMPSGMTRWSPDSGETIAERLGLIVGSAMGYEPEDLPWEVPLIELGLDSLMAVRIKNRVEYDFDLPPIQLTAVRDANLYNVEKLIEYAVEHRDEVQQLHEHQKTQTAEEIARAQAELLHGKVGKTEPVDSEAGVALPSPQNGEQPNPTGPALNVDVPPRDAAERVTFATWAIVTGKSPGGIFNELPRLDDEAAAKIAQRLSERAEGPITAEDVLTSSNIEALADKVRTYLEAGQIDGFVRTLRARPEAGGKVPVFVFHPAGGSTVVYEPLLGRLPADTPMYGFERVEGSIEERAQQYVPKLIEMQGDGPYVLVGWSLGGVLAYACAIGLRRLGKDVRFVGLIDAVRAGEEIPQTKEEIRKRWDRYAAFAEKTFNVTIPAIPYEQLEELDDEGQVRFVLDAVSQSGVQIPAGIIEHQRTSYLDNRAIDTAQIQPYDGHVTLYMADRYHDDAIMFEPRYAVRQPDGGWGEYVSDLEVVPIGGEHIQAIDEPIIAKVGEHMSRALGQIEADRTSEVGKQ
UniProt P9WNZ1, whole entry: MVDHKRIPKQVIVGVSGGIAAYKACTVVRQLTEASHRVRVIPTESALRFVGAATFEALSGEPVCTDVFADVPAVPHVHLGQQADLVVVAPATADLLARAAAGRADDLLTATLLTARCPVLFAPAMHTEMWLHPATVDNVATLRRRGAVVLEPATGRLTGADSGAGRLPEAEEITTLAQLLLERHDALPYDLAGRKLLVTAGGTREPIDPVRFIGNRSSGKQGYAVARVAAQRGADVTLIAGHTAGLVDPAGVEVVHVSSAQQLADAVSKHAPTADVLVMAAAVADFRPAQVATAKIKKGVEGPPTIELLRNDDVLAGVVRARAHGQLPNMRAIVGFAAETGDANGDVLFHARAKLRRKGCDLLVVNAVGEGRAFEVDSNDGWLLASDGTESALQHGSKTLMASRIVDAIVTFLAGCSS
UniProt P9WFT3, whole entry: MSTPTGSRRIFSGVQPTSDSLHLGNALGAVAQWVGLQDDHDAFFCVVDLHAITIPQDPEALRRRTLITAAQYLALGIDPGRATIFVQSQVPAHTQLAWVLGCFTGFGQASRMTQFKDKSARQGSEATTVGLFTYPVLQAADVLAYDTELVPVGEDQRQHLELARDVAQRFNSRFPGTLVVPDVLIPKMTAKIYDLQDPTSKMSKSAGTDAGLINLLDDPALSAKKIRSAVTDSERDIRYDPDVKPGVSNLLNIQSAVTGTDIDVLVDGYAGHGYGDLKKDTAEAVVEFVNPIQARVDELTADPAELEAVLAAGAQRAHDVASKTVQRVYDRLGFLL

Values are the deposited “Percent Effect”, in %.
How 0% and 100% were set is not recorded. Most values in the screen are low, and negative values occur.
Compounds were drawn at random from those tested, without regard to their results.

Pks13 thioesterase: 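Enzyme assay of the thioesterase domain of polyketide synthase 13; the read-out is not stated. Target: Polyketide synthase Pks13, Mycobacterium tuberculosis (UniProt I6X8D2). Tested at 30 µM. Higher reads as stronger inhibition (inferred from which compounds were picked for retests). About 67,000 compounds were tested under these conditions; 0.46% (about 300) showed 50% or more at least once.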
CoaBC: 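Enzyme assay of CoaBC with a phosphate dye (Biomol Green) read at 650 nm. Target: Coenzyme A biosynthesis protein CoaBC, Mycobacterium tuberculosis (UniProt P9WNZ1). Tested at 30 µM. Higher reads as stronger inhibition, judged from the few compounds that gave an IC50. Most strong results did not repeat in a second test. Of about 67,000 compounds tested this way, about 40 (0.06%) reached 50% or more in at least one test.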
Leishmania in macrophages: 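Cell assay of Leishmania donovani living inside macrophages; the read-out is not stated. Compounds at 30 µM. Direction is inferred from retests: higher values go with stronger inhibition. Of about 69,000 compounds tested this way, about 1,000 (1.5%) reached 50% or more in at least one test.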
MtTrpRS: 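Tryptophan-tRNA ligase, Mycobacterium tuberculosis (UniProt P9WFT3). Enzyme assay of tryptophanyl-tRNA synthetase; the read-out is not stated. Tested at 10 µM. Direction is not recorded; retested compounds ran higher, which suggests that high means inhibition. Of about 65,000 compounds tested this way, about 64 (0.098%) reached 50% or more in at least one test.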

structure: CC(C)Nc1nc2c(c(NC3CC3)n1)CCN(C(=O)C1CCOC1)CC2 (centres undefined)
Pks13 thioesterase: -4.948
CoaBC: -17.65
Leishmania in macrophages: 26.08
MtTrpRS: -3.319

structure: CCCn1cnnc1CNC(=O)C1COc2ccc(OC)cc2C1 (centres undefined)
Pks13 thioesterase: -1.15
Leishmania in macrophages: -25.92
MtTrpRS: 14.24

structure: O=C(CC1CCCCC1)N1CCOCC1CO (centres undefined)
Pks13 thioesterase: -13.07
CoaBC: -0.6361
Leishmania in macrophages: 6.501
MtTrpRS: 1.93

structure: Cc1cccc(C(C)(C)CNc2cn[nH]c(=O)c2Cl)c1
Pks13 thioesterase: -32.53
CoaBC: 2.552
Leishmania in macrophages: 25.95
MtTrpRS: -4.951

structure: Cc1cccnc1CCNC(=O)CC1C(=O)NCCN1CCC(C)C (centres undefined)
Pks13 thioesterase: -23.44
CoaBC: -25.03
Leishmania in macrophages: -9.976
MtTrpRS: -4.417

structure: O=C(O)C(F)(F)F.[H][C@@]12OCCN(C(=O)c3ccnnc3)[C@@]1([H])CC[C@H]2OCCN(C)C
Leishmania in macrophages: -6.984

structure: COC[C@@H]1CCC[C@]12CN(Cc1cccc(C)n1)CCO2
CoaBC: 6.595
MtTrpRS: -1.608

structure: O=C(CCc1ccncc1)NCc1csc(Br)c1
Pks13 thioesterase: -10.08
CoaBC: -3.753
Leishmania in macrophages: 27.23
MtTrpRS: -3.237

structure: Cc1noc(C)c1CC(=O)N1CCN(Cc2cscn2)CC1
Pks13 thioesterase: 0.1291
CoaBC: 9.506
Leishmania in macrophages: 6.176
MtTrpRS: -6.089

structure: OC1(CNc2ccc(Br)cn2)CCOCC1
Pks13 thioesterase: -16.31
CoaBC: 7.391
Leishmania in macrophages: 17.56
MtTrpRS: 1.06

structure: O=C(O)C(F)(F)F.[H][C@@]12CCN(c3ccc(C)nn3)C[C@]1([H])O[C@H](C(=O)N1CCOCC1)C2
Leishmania in macrophages: 15.04

structure: CCn1ncc(S(=O)(=O)N2CCCC3(CC=CNC3=O)C2)c1C (centres undefined)
Pks13 thioesterase: 9.974
CoaBC: -5.463
Leishmania in macrophages: 1.322
MtTrpRS: -4.687

structure: CN(Cc1csc(-c2cccs2)n1)Cc1ncccc1C(=O)O
Pks13 thioesterase: -7.612
CoaBC: -2.19
Leishmania in macrophages: 21.95
MtTrpRS: 2.977

structure: O=C(C1CCCOC1)N1CCCCc2ccccc21 (centres undefined)
Pks13 thioesterase: -42.11
CoaBC: -0.2141
Leishmania in macrophages: -17.66
MtTrpRS: -2.019

structure: Cn1ncc2c1C(COCC1CC1)CN(C(=O)c1cscn1)C2.O=C(O)C(F)(F)F (centres undefined)
Leishmania in macrophages: 23.56

structure: COC(=O)CC(c1cccs1)c1oc(C)cc(=O)c1O (centres undefined)
Pks13 thioesterase: -21.35
CoaBC: 0.7634
Leishmania in macrophages: 11.63
MtTrpRS: -2.026

structure: COCCCN1C(=O)CC[C@H]2CN(c3cc(C(N)=O)ccn3)CC[C@H]21
Pks13 thioesterase: -2.082
CoaBC: 3.106
MtTrpRS: 1.447

structure: O=C(CS(=O)(=O)Cc1nnnn1C1CC1)NCCc1ccccc1
CoaBC: 9.627
Leishmania in macrophages: 18.41
MtTrpRS: 6.328

structure: [H][C@@]12C[C@H](C(=O)Nc3ccccc3)[C@@]([H])(CN(C(=O)NC)C1)O2
Leishmania in macrophages: -4.434

structure: Cc1oc(-c2ccccc2)nc1CN1CCC(c2ccnn2C)CC1
Pks13 thioesterase: 1.168
CoaBC: 6.274
Leishmania in macrophages: 9.934
MtTrpRS: 0.2571

structure: Cc1nn(C)c(N(C)C)c1CNC(C)c1cccc(OC(C)C)c1 (centres undefined)
Pks13 thioesterase: 26.06
CoaBC: 2.372
Leishmania in macrophages: 23.01
MtTrpRS: -1.981

Source: ChEMBL document CHEMBL3988442, “University of Dundee, Small-Polar-MMV Screening Library” (2021).